Laboratory results as given in the supplement of paper PMC12595434, “Development of retinoid nuclear receptor pathway antagonists through targeting aldehyde dehydrogenase 1A3” (iScience, 2025).
The other results are listed elsewhere or left out. Single values of this set are uncertain.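 Tm was set to 64 °C where no melting was found, and many curves are irregular.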

Amino acid sequences for entries named in this document (tags omitted). A change or cut given only in a name is not applied to a line headed by its entry.
UniProt Q8N0T1: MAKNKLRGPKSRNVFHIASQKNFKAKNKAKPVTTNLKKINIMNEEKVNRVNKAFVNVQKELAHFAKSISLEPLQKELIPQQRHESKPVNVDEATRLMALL
UniProt Q8IWR0: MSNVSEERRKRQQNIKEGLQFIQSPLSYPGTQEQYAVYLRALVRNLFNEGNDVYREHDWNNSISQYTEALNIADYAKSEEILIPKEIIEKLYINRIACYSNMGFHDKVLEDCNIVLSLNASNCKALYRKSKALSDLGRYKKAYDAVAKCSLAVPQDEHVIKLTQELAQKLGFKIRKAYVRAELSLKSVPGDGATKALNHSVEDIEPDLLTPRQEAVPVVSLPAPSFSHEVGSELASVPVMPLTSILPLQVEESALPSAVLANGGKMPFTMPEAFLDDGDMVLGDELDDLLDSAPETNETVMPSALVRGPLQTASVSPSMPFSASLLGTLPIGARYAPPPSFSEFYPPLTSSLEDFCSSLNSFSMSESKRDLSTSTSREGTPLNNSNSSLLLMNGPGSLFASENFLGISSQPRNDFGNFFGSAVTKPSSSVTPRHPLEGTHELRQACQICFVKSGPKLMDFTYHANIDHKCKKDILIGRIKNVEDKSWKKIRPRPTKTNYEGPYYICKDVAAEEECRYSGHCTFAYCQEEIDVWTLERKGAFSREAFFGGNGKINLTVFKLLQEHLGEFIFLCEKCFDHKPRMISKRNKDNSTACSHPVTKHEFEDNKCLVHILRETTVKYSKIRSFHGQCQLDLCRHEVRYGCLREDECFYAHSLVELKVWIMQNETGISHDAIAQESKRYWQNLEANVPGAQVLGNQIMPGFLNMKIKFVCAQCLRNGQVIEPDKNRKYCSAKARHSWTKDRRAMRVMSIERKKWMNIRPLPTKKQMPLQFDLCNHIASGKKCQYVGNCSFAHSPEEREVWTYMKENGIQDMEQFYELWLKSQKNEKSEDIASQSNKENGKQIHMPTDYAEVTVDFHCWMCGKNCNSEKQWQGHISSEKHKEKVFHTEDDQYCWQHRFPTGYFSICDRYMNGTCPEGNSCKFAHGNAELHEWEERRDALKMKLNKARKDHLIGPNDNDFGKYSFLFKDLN
UniProt Q86Y56: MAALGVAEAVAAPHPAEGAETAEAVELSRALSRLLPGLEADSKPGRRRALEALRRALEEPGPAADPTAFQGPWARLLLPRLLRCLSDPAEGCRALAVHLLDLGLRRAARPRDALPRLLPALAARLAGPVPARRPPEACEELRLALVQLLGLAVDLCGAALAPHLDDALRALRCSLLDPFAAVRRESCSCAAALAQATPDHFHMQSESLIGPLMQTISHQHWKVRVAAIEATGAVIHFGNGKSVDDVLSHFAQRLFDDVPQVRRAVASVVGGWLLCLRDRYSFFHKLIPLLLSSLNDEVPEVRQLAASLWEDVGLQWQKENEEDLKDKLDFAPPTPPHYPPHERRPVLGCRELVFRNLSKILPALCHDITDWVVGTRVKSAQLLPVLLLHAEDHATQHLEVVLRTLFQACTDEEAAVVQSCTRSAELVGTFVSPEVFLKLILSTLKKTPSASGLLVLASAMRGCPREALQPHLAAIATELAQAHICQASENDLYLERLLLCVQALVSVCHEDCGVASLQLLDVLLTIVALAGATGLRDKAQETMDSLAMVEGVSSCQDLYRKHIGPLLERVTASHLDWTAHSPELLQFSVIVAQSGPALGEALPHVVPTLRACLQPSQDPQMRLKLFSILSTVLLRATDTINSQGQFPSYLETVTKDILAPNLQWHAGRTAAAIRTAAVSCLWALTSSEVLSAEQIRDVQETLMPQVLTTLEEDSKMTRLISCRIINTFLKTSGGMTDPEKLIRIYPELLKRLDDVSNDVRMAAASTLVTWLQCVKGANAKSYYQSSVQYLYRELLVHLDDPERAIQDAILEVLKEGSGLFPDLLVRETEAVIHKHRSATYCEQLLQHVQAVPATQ
UniProt Q8IY67: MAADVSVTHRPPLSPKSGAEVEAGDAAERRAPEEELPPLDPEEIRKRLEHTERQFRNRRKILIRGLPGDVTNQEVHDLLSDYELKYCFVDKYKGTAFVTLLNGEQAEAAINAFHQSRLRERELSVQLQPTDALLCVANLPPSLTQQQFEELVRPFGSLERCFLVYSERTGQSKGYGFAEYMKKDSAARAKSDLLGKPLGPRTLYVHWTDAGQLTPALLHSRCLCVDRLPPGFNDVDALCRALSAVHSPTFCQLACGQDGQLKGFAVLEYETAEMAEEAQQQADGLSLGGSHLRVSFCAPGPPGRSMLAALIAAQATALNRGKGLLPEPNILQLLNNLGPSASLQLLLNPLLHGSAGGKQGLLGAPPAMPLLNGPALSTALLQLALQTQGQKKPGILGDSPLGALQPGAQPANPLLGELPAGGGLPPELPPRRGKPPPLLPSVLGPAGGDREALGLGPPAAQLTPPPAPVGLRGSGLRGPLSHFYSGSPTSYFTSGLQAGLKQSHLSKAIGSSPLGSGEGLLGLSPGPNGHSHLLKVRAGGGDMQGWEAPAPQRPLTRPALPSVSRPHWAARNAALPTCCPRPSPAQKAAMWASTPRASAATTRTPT
UniProt Q8N6Q8: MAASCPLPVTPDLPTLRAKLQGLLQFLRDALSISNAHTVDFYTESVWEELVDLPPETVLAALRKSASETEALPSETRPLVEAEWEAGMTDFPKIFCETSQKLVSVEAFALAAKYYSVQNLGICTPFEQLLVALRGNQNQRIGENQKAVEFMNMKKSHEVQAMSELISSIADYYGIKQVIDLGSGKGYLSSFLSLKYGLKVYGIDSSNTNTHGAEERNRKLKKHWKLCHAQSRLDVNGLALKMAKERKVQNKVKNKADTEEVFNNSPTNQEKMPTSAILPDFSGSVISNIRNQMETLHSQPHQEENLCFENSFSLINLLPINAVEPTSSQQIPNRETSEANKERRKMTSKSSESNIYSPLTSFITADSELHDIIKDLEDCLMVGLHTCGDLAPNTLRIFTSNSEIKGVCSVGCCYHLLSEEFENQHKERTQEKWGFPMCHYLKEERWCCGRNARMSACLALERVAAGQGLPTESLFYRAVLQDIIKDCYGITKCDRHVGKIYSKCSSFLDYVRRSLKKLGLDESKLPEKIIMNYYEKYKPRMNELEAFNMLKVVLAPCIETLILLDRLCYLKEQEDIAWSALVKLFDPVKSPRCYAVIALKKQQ
UniProt Q86Y91: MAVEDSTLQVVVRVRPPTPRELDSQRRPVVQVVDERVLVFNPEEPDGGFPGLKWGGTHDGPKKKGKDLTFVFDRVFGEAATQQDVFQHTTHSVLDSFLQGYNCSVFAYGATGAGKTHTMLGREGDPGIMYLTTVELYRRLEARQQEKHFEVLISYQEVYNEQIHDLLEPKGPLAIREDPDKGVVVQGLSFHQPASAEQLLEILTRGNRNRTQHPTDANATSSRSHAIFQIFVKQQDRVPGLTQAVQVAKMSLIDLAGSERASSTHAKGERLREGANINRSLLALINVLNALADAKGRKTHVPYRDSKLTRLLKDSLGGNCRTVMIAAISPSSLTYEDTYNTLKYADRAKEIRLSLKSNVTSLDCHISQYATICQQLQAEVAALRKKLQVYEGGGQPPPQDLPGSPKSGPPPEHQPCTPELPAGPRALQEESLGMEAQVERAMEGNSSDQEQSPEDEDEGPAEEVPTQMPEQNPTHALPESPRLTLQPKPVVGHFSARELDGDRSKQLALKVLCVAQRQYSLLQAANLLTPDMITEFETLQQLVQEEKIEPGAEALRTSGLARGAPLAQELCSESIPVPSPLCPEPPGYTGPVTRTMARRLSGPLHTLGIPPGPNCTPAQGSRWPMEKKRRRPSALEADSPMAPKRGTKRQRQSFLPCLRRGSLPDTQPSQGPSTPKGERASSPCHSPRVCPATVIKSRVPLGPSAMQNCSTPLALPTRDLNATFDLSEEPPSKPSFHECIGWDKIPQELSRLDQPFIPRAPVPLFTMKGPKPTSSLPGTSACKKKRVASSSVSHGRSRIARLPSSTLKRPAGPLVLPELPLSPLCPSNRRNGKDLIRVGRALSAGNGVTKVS
UniProt Q8IWZ3: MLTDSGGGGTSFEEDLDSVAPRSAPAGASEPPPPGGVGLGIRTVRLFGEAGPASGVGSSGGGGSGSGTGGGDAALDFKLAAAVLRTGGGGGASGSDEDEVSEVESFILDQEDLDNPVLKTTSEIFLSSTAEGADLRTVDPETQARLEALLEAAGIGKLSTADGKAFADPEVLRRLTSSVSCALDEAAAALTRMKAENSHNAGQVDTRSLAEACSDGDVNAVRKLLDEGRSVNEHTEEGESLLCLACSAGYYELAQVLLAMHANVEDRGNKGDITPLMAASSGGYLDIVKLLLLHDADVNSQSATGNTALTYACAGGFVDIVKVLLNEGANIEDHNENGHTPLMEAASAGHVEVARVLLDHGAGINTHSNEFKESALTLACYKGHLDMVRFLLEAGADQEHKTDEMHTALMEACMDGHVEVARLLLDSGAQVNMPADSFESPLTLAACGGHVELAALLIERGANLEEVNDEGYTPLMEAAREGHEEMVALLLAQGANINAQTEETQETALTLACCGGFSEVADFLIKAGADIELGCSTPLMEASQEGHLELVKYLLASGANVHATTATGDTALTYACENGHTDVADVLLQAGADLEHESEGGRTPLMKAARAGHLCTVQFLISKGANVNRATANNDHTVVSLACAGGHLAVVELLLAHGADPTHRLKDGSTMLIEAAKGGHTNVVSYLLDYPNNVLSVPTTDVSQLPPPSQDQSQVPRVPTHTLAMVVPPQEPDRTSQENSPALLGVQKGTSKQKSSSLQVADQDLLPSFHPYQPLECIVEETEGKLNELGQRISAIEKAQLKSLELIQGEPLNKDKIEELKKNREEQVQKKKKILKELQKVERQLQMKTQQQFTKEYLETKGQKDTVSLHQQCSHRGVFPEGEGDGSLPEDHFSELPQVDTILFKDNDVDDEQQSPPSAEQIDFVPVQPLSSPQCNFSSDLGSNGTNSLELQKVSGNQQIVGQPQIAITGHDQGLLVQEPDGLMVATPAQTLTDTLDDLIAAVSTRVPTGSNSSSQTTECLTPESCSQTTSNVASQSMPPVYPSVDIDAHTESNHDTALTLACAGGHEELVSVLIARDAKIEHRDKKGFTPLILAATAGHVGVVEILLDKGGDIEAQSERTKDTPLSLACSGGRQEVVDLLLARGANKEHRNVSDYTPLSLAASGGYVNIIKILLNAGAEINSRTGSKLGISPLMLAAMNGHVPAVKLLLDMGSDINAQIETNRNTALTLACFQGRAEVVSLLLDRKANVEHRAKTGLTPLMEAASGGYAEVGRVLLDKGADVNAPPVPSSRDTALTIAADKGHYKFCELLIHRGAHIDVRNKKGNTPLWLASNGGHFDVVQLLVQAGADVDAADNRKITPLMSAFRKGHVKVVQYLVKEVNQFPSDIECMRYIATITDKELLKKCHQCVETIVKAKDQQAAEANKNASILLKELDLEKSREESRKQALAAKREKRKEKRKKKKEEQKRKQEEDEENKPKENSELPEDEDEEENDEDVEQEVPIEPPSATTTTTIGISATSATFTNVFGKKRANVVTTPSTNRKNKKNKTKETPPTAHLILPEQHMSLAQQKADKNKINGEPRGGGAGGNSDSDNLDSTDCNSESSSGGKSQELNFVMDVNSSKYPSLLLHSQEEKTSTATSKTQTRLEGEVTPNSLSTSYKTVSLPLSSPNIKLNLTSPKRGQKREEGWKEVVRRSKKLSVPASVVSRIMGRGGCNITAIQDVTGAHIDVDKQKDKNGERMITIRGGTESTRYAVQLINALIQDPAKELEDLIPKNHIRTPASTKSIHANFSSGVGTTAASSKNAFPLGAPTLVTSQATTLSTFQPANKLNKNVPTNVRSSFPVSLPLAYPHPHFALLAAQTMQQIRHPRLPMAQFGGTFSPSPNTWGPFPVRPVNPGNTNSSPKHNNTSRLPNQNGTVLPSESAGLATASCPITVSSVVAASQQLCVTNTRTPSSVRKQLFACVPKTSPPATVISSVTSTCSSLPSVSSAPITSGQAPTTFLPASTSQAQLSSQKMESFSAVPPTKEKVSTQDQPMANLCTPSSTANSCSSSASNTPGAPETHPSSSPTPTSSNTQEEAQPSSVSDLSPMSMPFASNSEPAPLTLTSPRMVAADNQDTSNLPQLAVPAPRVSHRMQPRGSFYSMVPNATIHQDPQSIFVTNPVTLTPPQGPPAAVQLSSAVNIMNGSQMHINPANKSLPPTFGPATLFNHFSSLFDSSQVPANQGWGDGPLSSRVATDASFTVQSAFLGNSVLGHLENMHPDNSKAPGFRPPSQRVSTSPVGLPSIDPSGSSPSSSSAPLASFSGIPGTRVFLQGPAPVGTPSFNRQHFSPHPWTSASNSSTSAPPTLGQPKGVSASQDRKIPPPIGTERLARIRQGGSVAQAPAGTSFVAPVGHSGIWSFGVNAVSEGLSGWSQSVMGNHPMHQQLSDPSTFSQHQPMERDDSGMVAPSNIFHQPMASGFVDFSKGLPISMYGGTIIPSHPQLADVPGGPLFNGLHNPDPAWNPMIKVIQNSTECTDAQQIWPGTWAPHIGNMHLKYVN

Compound: CCc1cnccc1C(=O)Nc1cc2c(cc1F)NC(=O)CC2
Assay: melting temperature shift (DMSO Tm minus MBE1-treated Tm) in cellular thermal proteome profiling; higher = less thermal stabilization by MBE1 (negative = stabilized by MBE1)
Settings: A375

Target | melting temperature shift (MBE1 concentration: 100 nM) [°C] | melting temperature shift (MBE1 concentration: 1 uM) [°C]
UniProt Q8N350 | -3.14 | 1.71
C8ORF59 (UniProt Q8N0T1) | -4.9 | -2.85
ZC3H7A (UniProt Q8IWR0) | -0.82 | -0.493
TRMT2A (UniProt Q8IZ69) | -0.721 | 0.0769
OTUD6B (UniProt Q8N6M0) | -1.21 | -0.348
FOXRED2 (UniProt Q8IWF2) | -0.389 | -0.0537
UniProt Q8N8D1 | -1.46 | -1.16
THNSL1 (UniProt Q8IYQ7) | -0.0805 | 0.153
ARFGAP2 (UniProt Q8N6H7) | -0.159 | -0.723
DNAAF5 (UniProt Q86Y56) | -0.57 | -0.0897
PTRH1 (UniProt Q86Y79) | -0.464 | 0.238
UniProt Q8N157 | -3.71 | 1.23
UniProt Q8IUX7 | -2.18 | -1.96
PELP1 (UniProt Q8IZL8) | -1.31 | -1.64
LONP2 (UniProt Q86WA8) | -0.134 | 0.33
DDX42 (UniProt Q86XP3) | -0.0897 | -0.173
RAVER1 (UniProt Q8IY67) | 0.0961 | 0.506
PTGR2 (UniProt Q8N8N7) | 0.55 | 2.28
UniProt Q8IYA6 | -0.916 | -1.24
ZC3H8 (UniProt Q8N5P1) | -1.32 | -2.17
UniProt Q8N4X5 | 0.495 | 0.397
UniProt Q8IZ13 | 0.263 | 0.0244
STX12 (UniProt Q86Y82) | -4.66 | -4.61
UniProt Q8IXQ5 | -0.964 | -0.179
VRK2 (UniProt Q86Y07) | 0.904 | -0.311
UniProt Q8IWT3 | 1.04 | 0.562
UniProt Q8N201 | -0.436 | -0.698

Looked up above:
melting temperature shift (MBE1 concentration: 1 uM) [°C], UniProt Q8IYA6 is entered as -1.24
melting temperature shift (MBE1 concentration: 100 nM) [°C], UniProt Q8IXQ5 is entered as -0.964
melting temperature shift (MBE1 concentration: 1 uM) [°C], VRK2 (UniProt Q86Y07) is entered as -0.311

Following part

Target | melting temperature shift (MBE1 concentration: 100 nM) [°C] | melting temperature shift (MBE1 concentration: 1 uM) [°C]
FUK (UniProt Q8N0W3) | -1.5 | -1.54
CARNMT1 (UniProt Q8N4J0) | 0.0604 | -0.791
FAM177A1 (UniProt Q8N128) | -1.74 | 2.59
ANKMY2 (UniProt Q8IV38) | 0.403 | 0.464
MAPKAPK5 (UniProt Q8IW41) | 0.335 | 0.0611
SBF2 (UniProt Q86WG5) | 1.75 | 0.946
DIS3L2 (UniProt Q8IYB7) | 0.208 | 0.0305
EHBP1L1 (UniProt Q8N3D4) | -0.0282 | -0.336
DHX40 (UniProt Q8IX18) | -1.74 | 1.19
UniProt Q8N0Y2 | -4.05 | -0.751
UBE2J2 (UniProt Q8N2K1) | 0.525 | -0.0794
TTC5 (UniProt Q8N0Z6) | -1.11 | -0.452
DTWD1 (UniProt Q8N5C7) | -0.202 | -0.946
DHX37 (UniProt Q8IY37) | -0.84 | -6.92
UniProt Q8N8J7 | -0.635 | -0.501
GPD1L (UniProt Q8N335) | 0.402 | 1.26
UniProt Q8IYD8 | -0.249 | -2.13
TMEM126B (UniProt Q8IUX1) | -1.11 | 0.248
UniProt Q8N465 | -0.583 | 0.63
UniProt Q8N5C8 | -0.72 | -0.508
RPTOR (UniProt Q8N122) | 1.03 | 0.153
TMEM57 (UniProt Q8N5G2) | -1.17 | 0.418
AMZ2 (UniProt Q86W34) | -0.71 | -1.13
UniProt Q86WN1 | 0.0611 | 0.0244
UniProt Q8N1I0 | -0.789 | -0.591
ARFGAP1 (UniProt Q8N6T3) | -0.574 | -0.941
UniProt Q8IUC8 | 1.97 | 0.678

Target | melting temperature shift (MBE1 concentration: 100 nM) [°C] | melting temperature shift (MBE1 concentration: 1 uM) [°C]
DENND6A (UniProt Q8IWF6) | -2.19 | 0.446
CAND1 (UniProt Q86VP6) | -0.94 | 0.195
UniProt Q8N6Q8 | -0.557 | 0.783
DNAJC10 (UniProt Q8IXB1) | -1.47 | -0.114
HSCB (UniProt Q8IWL3) | -1.22 | 0.584
UniProt Q8IVV7 | -1.17 | -0.293
STK11IP (UniProt Q8N1F8) | 0.208 | -1.25
SMAP1 (UniProt Q8IYB5) | -0.0916 | 0.385
ZADH2 (UniProt Q8N4Q0) | -0.825 | 0.845
ANKRD13A (UniProt Q8IZ07) | 0.885 | -0.354
UniProt Q86Y91 | -0.568 | -0.35
SMC5 (UniProt Q8IY18) | 0.33 | -0.0488
ANKRD44 (UniProt Q8N8A2) | 0.678 | 0.147
UniProt Q86YB8 | -0.53 | -0.583
UniProt Q8IUZ5 | -3.01 | 0.934
UniProt Q8N3V7 | 0.989 | 1.67
SLC15A4 (UniProt Q8N697) | -3.67 | 0.644
OXR1 (UniProt Q8N573) | -0.369 | 0.00671
RYBP (UniProt Q8N488) | -1.42 | 0.0134
MMAA (UniProt Q8IVH4) | 0.919 | 1.48
GLCCI1 (UniProt Q86VQ1) | -0.262 | -2.93
ITPRIP (UniProt Q8IWB1) | 1.14 | 0.977
HOMER1 (UniProt Q86YM7) | 0.812 | 1.17
ELMOD2 (UniProt Q8IZ81) | -0.723 | 0.256
RALGAPB (UniProt Q86X10) | 0.0847 | 0.348
UniProt Q8N680 | 4.51 | 0.107
NUDCD3 (UniProt Q8IVD9) | -0.16 | -0.329

Target | melting temperature shift (MBE1 concentration: 100 nM) [°C] | melting temperature shift (MBE1 concentration: 1 uM) [°C]
GATAD2A (UniProt Q86YP4) | -0.487 | -0.308
UniProt Q8N8A6 | -0.39 | -0.103
KIAA0319L (UniProt Q8IZA0) | -3.41 | -1.61
WDR75 (UniProt Q8IWA0) | -0.0659 | 0.372
FTSJ3 (UniProt Q8IY81) | -0.455 | -0.826
STAG2 (UniProt Q8N3U4) | -0.604 | 0.415
MRPL41 (UniProt Q8IXM3) | 3.04 | 1.14
UEVLD (UniProt Q8IX04) | 0.946 | -1.2
MIB1 (UniProt Q86YT6) | 0.711 | 1.1
CHD1L (UniProt Q86WJ1) | -1.88 | -0.744
ABI1 (UniProt Q8IZP0) | 0.672 | -0.0855
CMTR1 (UniProt Q8N1G2) | 0.195 | 0.0244
GCC2 (UniProt Q8IWJ2) | -1.32 | -0.433
UniProt Q86WT1 | -1.11 | -0.16
UniProt Q8N7R7 | 1.91 | 1.25
UniProt Q86VX2 | -0.168 | -0.778
UniProt Q8N442 | 0.875 | 0.593
ARHGAP18 (UniProt Q8N392) | -0.47 | -0.39
UniProt Q8IW92 | -2.41 | -0.527
ZDHHC13 (UniProt Q8IUH4) | -0.54 | 0.36
ANKHD1 (UniProt Q8IWZ3) | -1.07 | -0.0256
UniProt Q8IWU5 | 2.96 | 1.96
MICU2 (UniProt Q8IYU8) | -0.413 | 0.324
CEP97 (UniProt Q8IW35) | 0.0546 | -0.281
